From patent US12636366B2, “Ruthenium (II) complexes and conjugates thereof for use as photosensitizer agent in photodynamic therapy” (Paris Sciences et Lettres, priority 2019, dated 2026)
For some of these results: At least one structure is not confirmed: it was looked up by name or label, or the drawing left a doubt. Some results were stated once for a whole list of compounds, not compound by compound.

Columns and labels:
[1] = cited from earlier work
[2] = Emission of the complexes in CH3CN upon excitation at 355 nm; format: physicochemical; conditions: room temperature
Method: The absorption of the samples in cuvettes has been measured with a Lambda 800 UV/VIS Spectrometer (PerkinElmer Instruments) and in 96 well plates with a SpectraMax M2 Spectrometer (Molecular Devices). The emission was measured by irradiation of the sample in fluorescence quartz cuvettes (width 1 cm) using a NT342B Nd-YAG pumped optical parametric oscillator (Ekspla) at 355 nm. Luminescence was focused and collected at right angle to the excitation pathway and directed to a Princeton Instruments Acton SP-2300i monochromator equipped with 1200 g/mm grating blazed at 500 nm. As a detector a XPI-Max 4 CCD camera (Princeton Instruments) has been used.
Upon excitation at 355 nm, the emission of the complexes in CH3CN was determined. The maximum of the emission signal was measured between 600-710 nm (Table 1). […] This leads for all investigated complexes to a large Stokes shift implying minimal inference between excitation and luminescence.

[3] = UV/Vis absorption of the complexes in CH3CN; format: physicochemical
[4] = Singlet oxygen quantum yields, direct and indirect methods taken together, and reference values; format: physicochemical; conditions: both methods

[Ru+2].c1ccc(-c2ccccn2)nc1.c1ccc(-c2ccccn2)nc1.c1ccc(-c2ccccn2)nc1 [[Ru(bipy)3]^2+]
Lowest energy absorption band, MLCT transition (prototype complex) [1]: 450 nm

((E,E′)-4,4′-Bis(N,N′-dimethylaminovinyl)-2,2′-bipyridine)bis(1,10-phenanthroline)ruthenium(II) hexafluorophosphate [Compound 5]
Emission λem [2]: 694-710 nm | Absorption tail towards the therapeutic spectral window [3]: have a long absorption tail towards the therapeutic spectral window | Φ(1O2) in CH3CN using the direct and indirect method [4]: 0.22-0.35

((E,E′)-4,4′-Bis(N,N′-dimethylaminovinyl)-2,2′-bipyridine)bis(4,7-diphenyl-1,10-phenanthroline)ruthenium(II) hexafluorophosphate [Compound 7]
Emission λem [2]: 694-710 nm | Absorption tail towards the therapeutic spectral window [3]: have a long absorption tail towards the therapeutic spectral window | Φ(1O2) in CH3CN using the direct and indirect method [4]: 0.22-0.35
